The chains behind the UniProt entries cited, without tags or fusion partners. Where a name states a change or a piece, a line headed by the entry shows the natural chain unless it says otherwise.
UniProt P11308: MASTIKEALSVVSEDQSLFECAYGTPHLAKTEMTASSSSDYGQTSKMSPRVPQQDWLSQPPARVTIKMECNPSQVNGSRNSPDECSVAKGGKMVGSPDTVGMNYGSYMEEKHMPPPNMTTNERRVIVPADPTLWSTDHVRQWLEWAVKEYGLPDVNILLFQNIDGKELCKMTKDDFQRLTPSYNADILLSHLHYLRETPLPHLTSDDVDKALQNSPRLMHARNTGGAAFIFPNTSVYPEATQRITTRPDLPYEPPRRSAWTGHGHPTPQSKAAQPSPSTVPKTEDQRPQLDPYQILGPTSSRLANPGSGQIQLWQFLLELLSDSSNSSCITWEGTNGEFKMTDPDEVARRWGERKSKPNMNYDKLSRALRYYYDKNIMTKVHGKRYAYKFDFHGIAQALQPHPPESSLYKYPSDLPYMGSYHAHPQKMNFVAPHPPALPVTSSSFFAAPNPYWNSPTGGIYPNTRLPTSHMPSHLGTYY

Several values for one entry are separate records, joined by “and”; a condition that tells them apart may be missing. Equal values may be shown once. Screen size: about 1,200 compounds; fewer than 10 were called active. Calls come from the whole dose curve; as a rule, active = well fitted curve in the direction sought with a large enough effect; inconclusive = small, poorly fitted or top-dose-only effect, or another doubt; inactive = no such curve, though single readings can be large or run the other way. This is one part of the list.
The compounds below were run against Transcriptional regulator ERG (Homo sapiens) (UniProt P11308) (assay: qHTS for Small Molecule Inhibitors of the ERG Ets/DNA interaction: TR assay against cherry picks). Conditions: ERG Ets domain-DNA fluorescence polarization, Texas red probe; at 154 µM (top of the series).
Description: The Ets family of proteins is a family of ~30 conserved transcription factors defined by the presence of an ~85 amino acid domain referred to as the Ets domain, which mediates sequence-specific DNA binding to a core DNA element GGAA/T.The Ets family member ERG has been linked to several neoplasms. […] More extensive studies of the effects of over-expression of ERG in prostate cells have recently been carried out and have shown that over-expression of ERG results in increased invasion. […] We will carry out a high throughout screen to identify inhibitors of the interaction between ERG and DNA using a fluorescence polarization (FP) assay with a His-tagged ERG Ets domain and fluorescently-labeled DNA probes to develop small molecule inhibitors of this interaction as probes to test this hypothesis and lay the groundwork for the development of targeted therapies against ERG. This is the confirmation against the cherry picks in theprimary screening assay. NIH Molecular Libraries Probe Production Network [MLPCN] NIH Chemical Genomics Center [NCGC] Grant: NS066464 PI Name: John Bushweller, University of Virgina
1.5 ul of protein solution (1 uM ERG domain in 300mM KCl, 50mM Tris-HCl, 1mM EDTA, 1mM DTT, pH 7.5); 20 nl Control plate and compound library plate; 1.5 ul mixture of 5 nM Fluorescein-DNA and 100nM Texas-615-DNA solution in same buffer as above solution; measure fluorescence polarization sequentially for fluorescein (Excitation = 480 nm, Emission = 535s, 535p nm) and Texas red (Excitation = 555 nm, Emission = 632s, 632p nm).
COc1cccc(-n2c(/C=C/c3cccc(C)c3)nc3ccccc3c2=O)c1 was tested, and the activity change, negative = inhibition was inactive: -0.532%. With O=C(CCc1nnc2ccc(NCc3ccccc3Cl)nn12)N1CCC2(CC1)OCCO2 the activity change, negative = inhibition was inactive: 6.17%. For N#CCN1CCN(c2ccc(C(F)(F)F)cc2)CC1, the activity change, negative = inhibition was inactive: -8.11%. CN1C[C@@H]2C[C@@H](c3cccn3-c3ccccn3)N3CCC[C@@]23C1=O was tested, and the activity change, negative = inhibition was inactive: 8.76%. For NC(=O)Cn1cc(C=C2C(=O)NC(=O)NC2=O)c2ccccc21, the activity change, negative = inhibition was inactive: 0.488%. OC(COCc1ccc(Cl)cc1)CN1CC=C(c2ccccc2)CC1 (stereo not given) was tested, and the activity change, negative = inhibition was inactive: 0.282%. In the case of CC12CC3CC(C)(C1)CC(N)(C3)C2, the activity change, negative = inhibition was inactive: -11.6%. Cc1ccc(-c2nc3ccccc3c(=O)n2-c2cccc(O)c2)cc1 was tested, and the activity change, negative = inhibition was inactive: 14.3%. CN1CCc2cccc(Cl)c2CC1 was tested, and the activity change, negative = inhibition was inactive: 0.773%. C[C@]12CCC(=O)C=C1CC[C@@H]1[C@@H]2CC[C@@]2(C)[C@H]1CC[C@]2(C)O was tested, and the activity change, negative = inhibition was inactive: 3.26%. CC(=O)N1CC(=O)Nc2ccc(F)cc2C1c1ccccc1 (stereo not given) was tested, and the activity change, negative = inhibition was inactive: -2.99%. CC(C)N1CCN(Cc2ccccc2C(F)(F)F)CC1CCO (stereo not given) was tested, and the activity change, negative = inhibition was inactive: -12.5%. For COc1ccc2[nH]c(C)c(CCNCc3cccnc3)c2c1, the activity change, negative = inhibition was inactive: 4.76%. In the case of O=c1c2ccccc2nc(-c2ccco2)n1-c1ccccc1, the activity change, negative = inhibition was inactive: -18.9%. In the case of COc1ccc(C(c2ccc(OC)cc2)C(Cl)(Cl)Cl)cc1, the activity change, negative = inhibition was inactive: 2.21%. C=C1C2C[C@@]3([C@@H]1O)[C@@H](C[C@@H]2O)[C@@]12C4[C@@H]3C[C@@H]1[C@@](C)(CC[C@@H]2O)CN4CC was tested, and the activity change, negative = inhibition was inactive: 8.35%. For O=C(CN1CC=C(c2ccccc2)CC1)Nc1cc(Cl)ccc1Cl, the activity change, negative = inhibition was inactive: -8.17%. COc1ccccc1N1CCN(CCc2c[nH]c3cc4c(cc23)OCO4)CC1 was tested, and the activity change, negative = inhibition was inactive: -9.36%. In the case of O=C(Cc1ccccc1)Oc1ccc([N+](=O)[O-])cc1, the activity change, negative = inhibition was inactive: 4.7%. O=C(COc1ccccc1)NCCc1cnc[nH]1 was tested, and the activity change, negative = inhibition was inactive: -4.24%. With C[N+]1(C)[C@@H]2CC[C@H]1CC(OC(=O)C(CO)c1ccccc1)C2 (stereo not given in full) the activity change, negative = inhibition was inactive: 3.7%. With CC(=O)C1(c2ccccc2)CCN(C(=O)C2CCC(=O)N(CCc3cccc(F)c3)C2)CC1 (stereo not given) the activity change, negative = inhibition was inactive: -1.22%. In the case of COc1cc(C[C@@H](C)N)c(OC)cc1I, the activity change, negative = inhibition was inactive: -8.87%. With Nc1ccc2nonc2c1[N+](=O)[O-] the activity change, negative = inhibition was inactive: 36.1%. With COc1cc(C(c2c(O)c3ccccc3oc2=O)c2c(C)n(C)n(-c3ccccc3)c2=O)ccc1O (stereo not given) the activity change, negative = inhibition was inactive: -12%. For CN1[C@@H]2CCC[C@H]1CC(=O)C2, the activity change, negative = inhibition was inactive: 2.19%. With COC(=O)NC(=C(Cl)Cl)P(=O)(c1ccccc1)c1ccccc1 the activity change, negative = inhibition was inactive: 2.4%. NCCc1cc(O)c(O)cc1O was tested, and the activity change, negative = inhibition was inactive: 39.4% and inactive: 1.72%. With C[C@]12CCC(=O)C[C@@H]1CC[C@@H]1[C@@H]2CC[C@]2(C)[C@@H](O)CC[C@@H]12 the activity change, negative = inhibition was inactive: -2.65%. In the case of CC(C)(O)/C=C/C(=O)C(C)(O)C1C(O)CC2(C)C3CC=C4C(C=C(O)C(=O)C4(C)C)C3(C)C(=O)CC12C (stereo not given), the activity change, negative = inhibition was inactive: 4.23%.

Source: PubChem BioAssay AID651803 (National Center for Advancing Translational Sciences (NCATS), 2012)
Note: % of control where 0% means no effect.
